{"source": "patent US7074459B2", "about": "“Method for preserving wood” (priority 2003, dated 2006)", "key": {"[1]": {"assay": "Percentage weight gain of wood after chemical treatment", "details": "1% treatment, unleached"}, "[2]": {"assay": "ASTM 1413 soil bottles with no fungus (monitor leaching of chemicals)", "details": "1% treatment, unleached, 12 weeks"}}, "data": [{"smiles": "OC[P+](CO)(CO)CO.[O-][n+]1ccccc1[S-]", "note": "[Compound 8]", "values": [{"measurement": "WPG (%) Percentage Weight Gain after Chemical Treatment", "setting": "[1]", "value": 1.165, "unit": "%"}, {"measurement": "Wt. Loss % (No Fungus)", "setting": "[2]", "value": "−0.30", "unit": "%"}]}]}
